From CN1649900A
Changes are numbered by the printed parent chain. No constants are given. Whether binding was seen depends on the method and setting. Some results given as binding are weak or reduced against the parent protein; the word gives no strength. Blank lines part the entries; values can stand above or below the binder they belong to.

Sequences of proteins named here, by UniProt entry; tags and fusion partners are left off. Residues count along the entry.
UniProt P07359, residues 17-531: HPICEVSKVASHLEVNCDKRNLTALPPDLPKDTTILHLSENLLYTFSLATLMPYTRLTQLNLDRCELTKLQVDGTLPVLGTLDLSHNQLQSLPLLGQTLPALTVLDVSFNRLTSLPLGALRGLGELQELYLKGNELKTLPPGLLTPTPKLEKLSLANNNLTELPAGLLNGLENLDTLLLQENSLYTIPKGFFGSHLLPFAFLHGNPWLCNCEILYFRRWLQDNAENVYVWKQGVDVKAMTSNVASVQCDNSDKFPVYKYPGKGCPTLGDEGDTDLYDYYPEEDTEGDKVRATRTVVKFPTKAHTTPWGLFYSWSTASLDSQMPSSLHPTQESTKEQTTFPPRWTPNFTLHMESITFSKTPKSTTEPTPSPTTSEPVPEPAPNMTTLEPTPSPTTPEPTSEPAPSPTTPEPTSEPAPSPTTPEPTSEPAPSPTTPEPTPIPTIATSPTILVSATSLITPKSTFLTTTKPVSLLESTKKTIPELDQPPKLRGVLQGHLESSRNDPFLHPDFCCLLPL

Experiments:
[1] = molecular target: glycocalicin purified from human platelets (soluble extracellular fragment of GPIbα) (human) (UniProt P07359); assay: Western blot after O-sialoglycoprotein endopeptidase or ficin cleavage
[2] = molecular target: glycocalicin purified from human platelets (soluble extracellular fragment of GPIbα) (human) (UniProt P07359); assay: Western blot
[3] = molecular target: T1, complement compound 4 (CC4) from human plasma (human) (UniProt P0C0L4); assay: binding to human plasma proteins
T1 sequence (looked up): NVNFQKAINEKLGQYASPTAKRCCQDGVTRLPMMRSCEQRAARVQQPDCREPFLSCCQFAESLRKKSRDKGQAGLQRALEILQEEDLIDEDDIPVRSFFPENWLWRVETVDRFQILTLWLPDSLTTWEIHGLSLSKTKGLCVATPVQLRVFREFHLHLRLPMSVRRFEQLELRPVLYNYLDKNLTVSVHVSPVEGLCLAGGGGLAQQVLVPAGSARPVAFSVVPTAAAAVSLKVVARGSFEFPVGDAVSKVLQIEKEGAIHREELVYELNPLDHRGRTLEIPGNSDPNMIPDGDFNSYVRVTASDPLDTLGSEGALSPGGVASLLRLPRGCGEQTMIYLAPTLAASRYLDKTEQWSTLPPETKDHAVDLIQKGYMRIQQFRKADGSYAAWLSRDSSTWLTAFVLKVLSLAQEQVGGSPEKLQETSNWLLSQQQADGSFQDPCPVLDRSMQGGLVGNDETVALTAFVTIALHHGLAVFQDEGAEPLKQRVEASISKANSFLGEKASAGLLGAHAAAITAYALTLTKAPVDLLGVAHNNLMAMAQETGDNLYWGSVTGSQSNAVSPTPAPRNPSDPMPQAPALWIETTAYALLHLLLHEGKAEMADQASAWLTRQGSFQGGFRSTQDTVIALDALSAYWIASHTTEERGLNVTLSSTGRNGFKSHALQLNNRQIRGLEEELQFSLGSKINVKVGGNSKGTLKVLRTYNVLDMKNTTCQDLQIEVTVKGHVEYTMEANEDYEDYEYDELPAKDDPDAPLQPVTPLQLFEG

[4] = molecular target: T1, complement compound 4 (CC4) from human plasma (human); assay: summary
[5] = molecular target: T1, complement compound 4 (CC4) from human plasma (human); assay: immunoreaction with plasma proteins

binding [1]: binds | binding [2]: binds
B1: Y17 scFv (scFv)
scFv: EVQLVESGGGVVRPGGSLRLSCAASGFTFDDYGMSWVRQAPGKGLEWVSGINWNGGSTGYADSVKGRFTISRDNAKNSLYLQMNSLRAEDTAVYYCARLTHPYFWGQGTLVTVSRGGGGSGGGGSGGGGSSELTQDPAVSVALGQTVRITCQGDSLRSYYASWYQQKPGQAPVLVIYGKNNRPSGIPDRFSGSSSGNTASLTITGAQAEDEADYYCNSRDSSGNHVVFGGGTKLTVLGAAAEQKLISEEDLNGAA

binding [3]: binds | binding [4]: binds | binding [5]: binds
B2: Y1 scFv (human single-chain Fv antibody fragment Y1) (scFv)
scFv: B1 scFv with L99M, T100R, H101A, Y103V, F104I
